Tested on: CHOP promoter-driven luciferase (CHOP-Luc) in HEK293T cells
Assay: CHOP-Luc reporter cell-based assay (HTS and retest)
Parameters: species or system human
Details: Tm/Tg 1 μM, 24 hours
Experimental: ER stress reporter cell lines.
Cell-based HTS. The HTS to identify CHOP expression inhibitors was performed at the Stanford High-Throughput Bioscience Center with small molecule libraries containing 4846 total known bioactive, FDA approved drugs and clinical trial compounds; libraries included Biomol FDA, Biomol ICCB, Microsource (MS) Spectrum, Sigma LOPAC, and NIH Clinical Collection (NIH-CC). All the compounds were run in 7-point dose response based on a previous publication; except the NIH Clinical collection (446 compounds) which were tested in duplicate due to the small quantity of compounds on hand. Most of the NIH-CC was screened at 10 µM, but this varied per compound. The Z′ of the assay was 0.5, details on instrumentation can be found here: https://med.stanford.edu/htbc/equipment/liquid.html. We used the Pin Tool to transfer 100 nL of the compounds into 50 μL final volume. […] AeraSeal sterile adhesive microplate seals (Excel Scientific; Victorville, CA) were used to seal plates that were incubated at 5% CO2, 37° C. for 24 hours, when luciferase activity was assayed by adding 10 μL of Bright™-Glo Luciferase reagent (Promega) to each well and detected by a Tecan Infinite M1000 Pro plate reader. […] Luciferase activity of all the tested compounds was determined by meta-analysis of luciferase activity in different cell lines under the control of a generic or other promoters. […]

| Structure (SMILES) | CHOP-luciferase activity induced by ER stress (Tm/Tg) (compound at 10 µM, relative to DMSO (FIG. 1d)) | IC50 of CHOP-Luc activity (compared among the three hit compounds) |
| --- | --- | --- |
| Clc1ccc2c(c1)CCc1cccnc1C2=C1CCNCC1 [desloratadine] | significantly inhibited | – |
| CNCCCC12CCC(c3ccccc31)c1ccccc12 [maprotiline] | – | the lowest IC50 |
